{
  "source": "paper PMC6381796",
  "key": {"[1]": {"test_system": "DmCMG helicase (Cdc45-Mcm2-7-GINS) (Drosophila melanogaster)", "assay": "competition (trap of free helicase, fluorescence unwinding read-out)", "details": "1.5 uM oligo, ATP, CMG not pre-loaded on fork; CMG: 25 mM HEPES pH 7.5, 5 mM NaCl, 10 mM Mg acetate, 5 mM DTT, 0.1 mg/ml BSA, loading with 0.1 mM ATPgS at 37 C, fluorescence read at 25 C; recombinant protein; single-stranded DNA"}, "[2]": {"biological_target": "T1, HpaII methyltransferase (M.HpaII) (UniProt P15446)", "T1 sequence (looked up, limits assumed)": "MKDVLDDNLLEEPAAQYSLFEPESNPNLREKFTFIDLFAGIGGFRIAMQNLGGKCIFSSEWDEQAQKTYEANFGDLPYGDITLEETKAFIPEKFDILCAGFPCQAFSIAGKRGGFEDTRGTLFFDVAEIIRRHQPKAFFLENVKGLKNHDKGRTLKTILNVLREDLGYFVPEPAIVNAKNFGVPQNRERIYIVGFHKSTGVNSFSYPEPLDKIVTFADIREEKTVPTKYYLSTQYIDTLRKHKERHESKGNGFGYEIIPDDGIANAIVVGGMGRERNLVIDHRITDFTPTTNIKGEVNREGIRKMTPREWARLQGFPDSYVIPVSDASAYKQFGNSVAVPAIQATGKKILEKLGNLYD", "assay": "covalent 5FdC trapping; thermal duplex stability on native PAGE", "details": "covalent complex, S-adenosylmethionine in conjugation, duplex resistant to heat up to at least 60 C; 5-fluoro-2'-deoxycytidine at position 9 of strand 1; 5'-phosphate on strand 1; CMG: 25 mM HEPES pH 7.5, 5 mM NaCl, 10 mM Mg acetate, 5 mM DTT, 0.1 mg/ml BSA, loading with 0.1 mM ATPgS at 37 C, fluorescence read at 25 C; commercial protein; label: 5'-Cy5 on strand 2"}},
  "note": "For at least one entry, the source does not settle the construct or the ends of the probe. For some assays here: Protein sequences can lack the tags named with them.",
  "data": [
    {"sequence": "TTTTTTTTTTTTTTTTTTTTTTTTTTTTTTTTTTTTTTTT [Oligo-5 (dT40)]", "values": [
      {"measurement": "binding result", "setting": "[1]", "value": "binds"}
    ]},
    {"sequence": "TCAGCATCCGGTACC / GGGTACCGGATGCTGT [Duplex-5FdC (Oligo-Fluo-1 / Oligo-Cy5-5)]", "values": [
      {"measurement": "binding result", "setting": "[2]", "value": "binds"}
    ]}
  ]
}
